The results in this text go back to paper PMC12751603 (Journal of Experimental & Clinical Cancer Research : CR, 2025).

Amino acid sequences for entries named in this document (tags omitted). Residues count along the entry.
UniProt P08069, residues 31-1367: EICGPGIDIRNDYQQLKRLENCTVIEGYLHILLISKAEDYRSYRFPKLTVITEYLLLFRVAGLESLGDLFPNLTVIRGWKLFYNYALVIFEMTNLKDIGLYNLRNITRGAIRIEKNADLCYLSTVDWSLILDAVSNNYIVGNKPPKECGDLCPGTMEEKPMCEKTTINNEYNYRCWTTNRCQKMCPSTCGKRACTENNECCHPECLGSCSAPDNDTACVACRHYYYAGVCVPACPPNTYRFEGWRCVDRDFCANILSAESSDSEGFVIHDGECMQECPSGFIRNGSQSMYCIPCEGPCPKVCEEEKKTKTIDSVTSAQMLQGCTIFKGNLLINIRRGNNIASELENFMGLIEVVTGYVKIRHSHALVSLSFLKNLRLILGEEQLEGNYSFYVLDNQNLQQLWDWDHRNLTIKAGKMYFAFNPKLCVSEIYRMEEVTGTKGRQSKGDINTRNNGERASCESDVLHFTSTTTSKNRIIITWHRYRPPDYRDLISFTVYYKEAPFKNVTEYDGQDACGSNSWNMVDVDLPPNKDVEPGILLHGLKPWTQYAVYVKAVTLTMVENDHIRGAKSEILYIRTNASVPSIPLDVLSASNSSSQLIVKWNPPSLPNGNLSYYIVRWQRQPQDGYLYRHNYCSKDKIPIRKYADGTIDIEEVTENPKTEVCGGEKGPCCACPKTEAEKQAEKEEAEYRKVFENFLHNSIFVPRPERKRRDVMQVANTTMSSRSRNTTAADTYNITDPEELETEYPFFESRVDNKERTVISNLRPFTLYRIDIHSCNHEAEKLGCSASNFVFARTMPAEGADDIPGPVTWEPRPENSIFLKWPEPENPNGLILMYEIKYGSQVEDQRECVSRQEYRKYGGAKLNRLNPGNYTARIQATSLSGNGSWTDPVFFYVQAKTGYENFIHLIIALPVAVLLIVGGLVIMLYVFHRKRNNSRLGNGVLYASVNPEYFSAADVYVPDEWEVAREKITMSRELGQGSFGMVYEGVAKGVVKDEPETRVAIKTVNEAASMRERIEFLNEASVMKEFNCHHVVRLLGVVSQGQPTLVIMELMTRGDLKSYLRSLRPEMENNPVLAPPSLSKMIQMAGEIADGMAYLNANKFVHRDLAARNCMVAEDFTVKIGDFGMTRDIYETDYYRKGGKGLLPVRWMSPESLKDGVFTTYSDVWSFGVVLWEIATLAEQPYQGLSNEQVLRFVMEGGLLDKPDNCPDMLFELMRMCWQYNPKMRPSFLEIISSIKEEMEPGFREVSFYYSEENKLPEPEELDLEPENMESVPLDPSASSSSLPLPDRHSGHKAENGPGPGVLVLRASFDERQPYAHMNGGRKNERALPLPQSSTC

No constants are given. Whether binding was seen depends on the method and setting. For part of these data: In cells and extracts the contact can be indirect. Some results given as binding are weak or reduced against the parent protein; the word gives no strength. For part of these data: Tags and fused reporters may be left off the sequences shown.

One experiment concerns the target T1, Flag-tagged PTPN9 (UniProt P43378).
T1 sequence: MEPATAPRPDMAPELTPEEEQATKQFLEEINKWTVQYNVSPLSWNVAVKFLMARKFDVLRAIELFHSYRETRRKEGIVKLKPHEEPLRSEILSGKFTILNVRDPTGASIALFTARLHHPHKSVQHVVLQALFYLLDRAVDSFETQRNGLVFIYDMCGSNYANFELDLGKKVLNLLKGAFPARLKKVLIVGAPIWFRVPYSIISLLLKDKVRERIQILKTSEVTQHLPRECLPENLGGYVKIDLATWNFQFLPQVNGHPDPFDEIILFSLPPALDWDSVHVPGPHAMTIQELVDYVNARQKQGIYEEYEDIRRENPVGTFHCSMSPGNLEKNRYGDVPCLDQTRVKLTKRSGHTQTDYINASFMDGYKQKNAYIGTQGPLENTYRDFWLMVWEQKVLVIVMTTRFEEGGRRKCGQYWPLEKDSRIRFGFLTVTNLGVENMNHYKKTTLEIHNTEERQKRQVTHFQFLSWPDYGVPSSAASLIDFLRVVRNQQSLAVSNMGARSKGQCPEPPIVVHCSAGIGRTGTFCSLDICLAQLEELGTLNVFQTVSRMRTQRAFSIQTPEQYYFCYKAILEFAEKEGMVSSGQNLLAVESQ
Kind of experiment: co-IP; Flag-tagged PTPN9 (wild type or point mutants) and HA-tagged IGF1R overexpressed in HEK293T cells; anti-Flag immunoprecipitation and western blot; with IGF1 stimulation in Fig. 5G. (In general: In western blotting, separated proteins are transferred to a membrane and probed.)

Experiment [1] has as its target T2, Protein tyrosine phosphatase, non-receptor type 9 (endogenous) (human (endogenous in QBC-939 and RBE)) (UniProt P43378).
T2 sequence: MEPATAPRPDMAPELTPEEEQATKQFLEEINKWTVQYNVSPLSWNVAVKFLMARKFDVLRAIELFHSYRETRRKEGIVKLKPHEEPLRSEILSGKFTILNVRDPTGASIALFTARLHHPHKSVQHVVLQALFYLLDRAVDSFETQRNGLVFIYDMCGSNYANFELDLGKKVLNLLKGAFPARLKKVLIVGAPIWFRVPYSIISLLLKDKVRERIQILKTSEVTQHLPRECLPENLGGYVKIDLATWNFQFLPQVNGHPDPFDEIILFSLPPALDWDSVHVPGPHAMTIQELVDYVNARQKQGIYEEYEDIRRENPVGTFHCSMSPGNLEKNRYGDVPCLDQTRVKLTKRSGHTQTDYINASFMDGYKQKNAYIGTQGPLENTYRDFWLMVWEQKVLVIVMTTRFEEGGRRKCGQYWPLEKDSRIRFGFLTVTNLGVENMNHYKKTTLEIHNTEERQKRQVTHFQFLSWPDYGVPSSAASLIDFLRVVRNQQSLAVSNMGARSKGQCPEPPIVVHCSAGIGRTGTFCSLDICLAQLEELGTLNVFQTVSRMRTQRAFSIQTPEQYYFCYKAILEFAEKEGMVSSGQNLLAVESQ
As to the kind of experiment: co-IP; reciprocal endogenous co-immunoprecipitation in QBC-939 and RBE cholangiocarcinoma cell lines.

The target in a further experiment is T3, His-PTPN9-C515S/D470A (UniProt P43378).
T3 sequence: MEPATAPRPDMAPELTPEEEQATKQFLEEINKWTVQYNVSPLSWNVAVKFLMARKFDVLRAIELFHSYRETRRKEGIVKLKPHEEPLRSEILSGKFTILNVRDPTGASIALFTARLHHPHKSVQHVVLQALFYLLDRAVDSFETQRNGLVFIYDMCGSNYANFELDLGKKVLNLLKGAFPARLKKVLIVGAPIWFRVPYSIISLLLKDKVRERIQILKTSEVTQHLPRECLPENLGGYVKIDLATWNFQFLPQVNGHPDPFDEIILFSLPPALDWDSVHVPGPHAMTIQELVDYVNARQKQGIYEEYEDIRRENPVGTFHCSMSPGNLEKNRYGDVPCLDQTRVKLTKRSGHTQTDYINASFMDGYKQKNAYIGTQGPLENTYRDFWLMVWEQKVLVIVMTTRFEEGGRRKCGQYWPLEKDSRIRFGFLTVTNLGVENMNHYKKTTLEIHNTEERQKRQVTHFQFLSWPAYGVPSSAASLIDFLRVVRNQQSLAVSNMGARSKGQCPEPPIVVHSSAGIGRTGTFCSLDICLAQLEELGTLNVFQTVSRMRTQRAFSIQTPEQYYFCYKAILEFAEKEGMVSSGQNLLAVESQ
Kind of experiment: crystal structure; His-PTPN9-C515S/D470A (15 mg/ml) mixed with peptide at molar ratio 1:3 in 20 mM HEPES pH 7.2, 350 mM NaCl, 1 mM DTT; crystals at 4 °C; P1 space group; 2.0 Å; both purified.

Turning to “HA-tagged IGF1R (from UniProt P08069 31-1367) (receptor)”, in the experiment with Flag-tagged PTPN9, the binding entry is reported as “binds”.

For the molecule “Insulin-like growth factor 1 receptor (endogenous) (from UniProt P08069 31-1367)”, in experiment [1], the binding result is “binds”.

IYETDYYRKGGK (phosphotyrosine at Y1165 and Y1166 (IYETDpYpYRKGGK)) [p-IGF1R^Y1165/1166 peptide]: the binding entry with His-PTPN9-C515S/D470A was “binds”.
